Our source for the binding values is patent US20210355207A1 (ACADEMIA SINICA, published 2021).

No constants are given. Whether binding was seen depends on the method and setting. Some entries that bind do so weakly or less than the wild type.

The target of experiment [1] is T1, human advillin in CSF of patients treated with oxaliplatin (human) (UniProt O75366).
T1 sequence (looked up): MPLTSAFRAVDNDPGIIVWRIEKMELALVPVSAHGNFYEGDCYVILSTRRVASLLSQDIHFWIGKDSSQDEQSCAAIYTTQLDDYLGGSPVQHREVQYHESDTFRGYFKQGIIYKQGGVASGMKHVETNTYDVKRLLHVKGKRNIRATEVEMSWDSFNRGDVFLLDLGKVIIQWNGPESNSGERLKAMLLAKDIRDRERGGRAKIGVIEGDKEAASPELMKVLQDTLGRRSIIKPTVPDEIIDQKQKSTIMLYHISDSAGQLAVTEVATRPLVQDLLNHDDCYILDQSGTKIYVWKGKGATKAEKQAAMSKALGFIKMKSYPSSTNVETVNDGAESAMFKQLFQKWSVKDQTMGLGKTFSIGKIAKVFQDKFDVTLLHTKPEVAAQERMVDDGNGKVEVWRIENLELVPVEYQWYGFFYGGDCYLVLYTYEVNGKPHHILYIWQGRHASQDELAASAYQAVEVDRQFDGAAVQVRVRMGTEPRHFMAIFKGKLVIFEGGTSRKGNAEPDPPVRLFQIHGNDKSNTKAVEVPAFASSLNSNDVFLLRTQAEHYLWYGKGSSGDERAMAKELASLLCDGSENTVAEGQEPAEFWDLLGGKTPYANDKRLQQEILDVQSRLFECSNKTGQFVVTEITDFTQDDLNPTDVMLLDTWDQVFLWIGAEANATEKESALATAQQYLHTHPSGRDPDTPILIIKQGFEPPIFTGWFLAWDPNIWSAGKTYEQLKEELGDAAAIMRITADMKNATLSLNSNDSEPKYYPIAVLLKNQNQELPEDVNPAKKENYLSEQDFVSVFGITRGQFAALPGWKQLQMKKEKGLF
The experiment is described as follows: western blot (summing up of Example 2). For orientation: A western blot detects proteins with antibodies after separation by electrophoresis.

In experiment [2] the target is T1, human advillin in CSF of patients treated with oxaliplatin (human). As to the kind of experiment: western blot of human CSF samples.

B1: monoclonal antibody of human advillin hAvil, produced by the hybridoma YCC-S1 (antibody, V domains shown)
VH: EVKLEESGGGLVQPGGSLKLSCVASGFAFSNSWMSWVRQSPEKGLEWVAEIRLKSDNYASHYAESVKGRFTISRDDSKSRLYLQMNALRAEDTGIYYCSDGTWFTYWGQGTLVTVST
VL: DIVMSQSPSSLAVSVGEKVTMNCKSSQSLLYRANQKNYLAWYQQKPGQSPKLLIYWASTRESGVPDRFTGSGSGTDFTLTISSVKAEDLAVYYCQQYYSHPFTFGSGTKLKIK
notes: also called mouse monoclonal anti-human advillin; anti-advillin antibody
B1: the binding result in experiment [1] and in experiment [2] was “binds” in each case.
